Library screening results

The values are deposited in ChEMBL (CHEMBL3988442, “University of Dundee, Small-Polar-MMV Screening Library” (2021)).

A: 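Assay on Mycobacterium tuberculosis, filed only as a heat shock assay from Cornell; the read-out is not stated. The concentration is filed as 10 mM, unlikely as a test dose, so the dose is not known. Higher reads as stronger inhibition (inferred: compounds with an IC50 in retests scored well above the rest). Size under these conditions: about 69,000 compounds, about 930 of them at 50% or above in at least one test.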
B: 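Whole-cell assay for inhibitors of Mycobacterium tuberculosis growth, labelled Cornell in the record; the read-out is not stated. The concentration is filed as 10 mM, unlikely as a test dose, so the dose is not known. Higher means stronger inhibition (inferred from two other growth screens of the library). About 53,000 compounds were tested under these conditions; 1.7% (about 900) showed 50% or more at least once.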

Each number is a percent effect as filed. The record does not define 0% and 100%; most values in the screen are far below 50% and negative numbers occur (in some assays of this library far below -100). This is an unselected part of the compounds tested. A dash means the value is not listed here; it may have been measured.

| compound | A | B |
|---|---|---|
| `CCn1ccnc1CN1CCN(CC(O)Cn2cccn2)CC1` (stereo not given) | 1.119% | -7.97% |
| `O=C(c1ccc(O)nc1)N1Cc2ccccc2OC2(CCOCC2)C1` | -11.7% | -4.792% |
| `CN(Cc1ccsc1)c1nc(-c2ccccn2)nc2c1CCNCC2` | 90.45% | 4.772% |
| `CCN1CCC[C@@H]1CNC(=O)c1cc(COc2ccccc2)[nH]n1` | 3.747% | 4.904% |
| `Cc1cc(C)n(Cc2cccc(C(=O)N(CCC#N)CCC#N)c2)n1` | -2.931% | -15.98% |
| `Cc1nccn1-c1cccc(C2CCCN(C3CCCCC3)C2)n1` (stereo not given) | 34.64% | 4.106% |
| `CCOCCN1CCC(C(=O)c2cc(F)ccc2F)CC1` | -14.43% | - |
| `CC(C)C(=O)N1CCN(c2ncnc3cc4c(cc23)OCCO4)CC1` | -2.237% | - |
| `Cc1ccc(C(=O)N2CCC3(CCC(=O)N(CC(N)=O)C3)CC2)c(O)c1` | 37.77% | 10.24% |
| `[H][C@@]12CCCO[C@]1([H])[C@@H](OC)CN2Cc1ccccc1F` | 5.379% | 15.69% |
| `O=C(NCCOCCO)c1cccnc1Oc1ccc(Cl)cc1` | 43.92% | -30.46% |
| `Cc1cnn(CC2CCCN2Cc2ncc(-c3ccccc3)o2)c1` (stereo not given) | 61.17% | 29.34% |
| `Cc1nc(CN2CCC(CNC(=O)C3(C)CCCC3)CC2)oc1C` | -19.78% | - |
| `COC(=O)CCNC(=O)c1ccoc1CN1c2ccccc2CC1C` (stereo not given) | -15.45% | 59.33% |
| `O=C(O)C(F)(F)F.[H][C@@]12COC[C@]1(COc1cccnc1)CN(C(=O)c1ccc(F)cc1)C2` | 37.91% | -21.18% |
| `O=C(O)C(F)(F)F.[H][C@@]12CN(CC3CC3)C[C@]1([H])C(=O)N(Cc1cccc(F)c1)C2` | 0.3362% | 9.244% |
| `Cc1cnn(C2CN(CC(=O)Nc3cccnc3)C2)c1` | -23.41% | 19.49% |
| `N#Cc1ccccc1N1CCCN(CC(=O)Nc2ccc(Cl)cn2)CC1` | 3.359% | 32.71% |
| `COCC(=O)N1CCN(c2cc(-n3cccc3)nc(C)n2)CC1` | -11.67% | -15.31% |
| `CC(C)(C)C(=O)N1CCC(COCc2ccccc2)C1` (stereo not given) | -5.111% | 14.76% |
| `[H][C@@]12CCCO[C@]1([H])[C@@H](OCC1CCOCC1)CN2C(=O)c1ccc(C)o1` | -13.21% | - |
| `Cc1nc2n(n1)CCN(S(=O)(=O)c1ccc(Cl)cc1)C2` | -17.58% | 11.66% |
| `O=C(NCCNc1ncccn1)Nc1cc(C(F)(F)F)c[nH]c1=O` | -2.019% | 8.376% |
| `COCc1noc(CCNc2ncnc3c2CCNCC3)n1` | -10.87% | 32.07% |
| `O=C(c1cccc(N2CCCC2=O)c1)N1CCCC(n2cncn2)C1` (stereo not given) | 16.11% | -13.31% |
| `Cn1cc(Br)c(=O)c(NS(=O)(=O)c2ccc(F)cc2)c1` | -2.304% | - |
| `Cn1c(CN2CCCCC2)nnc1C1CCN(c2nccc(N)n2)CC1` | -23.64% | 3.655% |
| `Cc1ccc(C(=O)N2C[C@@H](C(=O)O)[C@H](c3ccncc3)C2)cc1F` | 13.79% | 5.763% |
| `CCC1CN(C(=O)COc2ccc(NC(C)=O)cc2)CCO1` (stereo not given) | 0.6201% | -44.34% |
| `Cn1cc(C(=O)N2CC[C@H](N3CCOCC3)[C@H](CCCO)C2)cn1` | -17.19% | 5.682% |
| `Cc1ccc(CC(=O)N2CSCC2C(=O)N(C)Cc2ccco2)o1` (stereo not given) | 16.56% | 26.72% |
| `CCc1ncc2c(n1)CN(Cc1nc3c(F)cccc3[nH]1)CC2` | 15.9% | 15.47% |
| `O=C(NCc1cccnc1)C1=NOC2(CCN(S(=O)(=O)C3CC3)C2)C1` (stereo not given) | 21.13% | -53.24% |
| `CC(C(=O)N1CCN(C)CC1)n1cc(Br)cn1` (stereo not given) | -11.74% | - |
| `CC1CCCN(S(=O)(=O)N2CCOC3(CCCC3)C2)C1` (stereo not given) | -19.58% | 43.88% |
| `Cc1cc(F)c(S(=O)(=O)NCC(C)(C)N)cc1F.Cl` | 6.497% | 1.754% |
| `CN(C)C(=O)c1sc2ncccc2c1C1CNCCO1.Cl` (stereo not given) | -13.92% | 5.94% |
| `CCOc1ccc(CNCCCn2ccnc2)cc1OC` | 5.034% | 18.29% |
| `CN(C)C(=O)N1CCC(C(=O)NCCNc2ncccc2C#N)CC1` | -4.017% | 19.05% |
| `CSCC(C)(O)CNc1ncccc1C(F)(F)F` (stereo not given) | 8.646% | - |
| `Cc1c(C2SCC(=O)Nc3c2c(O)nn3C2CCCC2)cnn1C` (stereo not given) | 3.671% | -20.17% |
| `NCCN1CCC(c2nnc(Cn3ccnc3)n2C2CC2)CC1` | -0.08871% | -7.115% |
| `O=C(Nc1ccccc1F)N(CCO)CCOCC(F)(F)F` | -24.38% | -9.759% |
| `O=C(Nc1ccccc1CCc1ccccn1)NC1CCOCC1` | -25.55% | -1.7% |
| `CCCS(=O)(=O)N1CCC2(CCCN(Cc3cccc(F)c3F)C2=O)C1` (stereo not given) | -18.82% | 18.82% |
| `N#CC1(NC(=O)c2cc(Cl)c3c(c2)OCCCO3)CCC1` | 15.09% | 1.818% |
| `O=C(CCSc1ccc2c(c1)OCCO2)NCC1CCS(=O)(=O)C1` (stereo not given) | -14.94% | -7.695% |
| `CCc1ccc(C(=O)N2CCN(CC(O)CC)CC2)o1` (stereo not given) | -24.48% | - |
| `CCN(CC)C(=O)c1ccc(-c2ccsc2)nc1C` | 85.72% | 18.7% |
| `CC(=O)N1CCC(CCc2ccnc(Nc3ccccn3)c2)CC1` | -11.24% | -47.7% |
| `CC(C)CC1CC(=O)Nc2c1cnn2Cc1ccco1` (stereo not given) | -20.66% | 39.56% |
| `CN(C)c1ncc2c(c1C(=O)O)CCN(Cc1ccco1)C2.O=C(O)C(F)(F)F.O=C(O)C(F)(F)F` | 10.22% | 20.43% |
| `CC(=O)N1CCN([C@@H]2CCC[C@@H](N(C)C(=O)C3CC3)[C@H]2O)CC1` | 28.43% | - |
| `CCCC(=O)NCC1CCCN(Cc2cc(C)c(C)o2)C1` (stereo not given) | 4.535% | -2.056% |
| `CCCOC1CCCN(Cc2nc(-c3ccc(F)cc3F)oc2C)C1` (stereo not given) | -26.76% | 18.51% |
| `Cc1nccn1CCN(C)C(=O)C1CCN(C(=O)C2CCCC2)CC1` | -1.258% | -27.13% |
| `CN(Cc1nccn1CC(F)(F)F)C(=O)c1ccc2c(c1)OCO2` | -11.01% | - |
| `CC(C)n1cc(C(=O)NC2CCS(=O)(=O)C2)c2ccccc2c1=O` (stereo not given) | -0.4948% | 16.08% |
| `Cc1ccc(C(=O)NC(C)CN2CCCC2=O)c(=O)[nH]1` (stereo not given) | -4.083% | -13.96% |
| `COc1ccc(F)cc1CN1CCCn2nc(CNS(C)(=O)=O)cc2C1` | 20.84% | - |
| `CSc1cccc(CN(C)C(=O)c2cccc(C3CCCNC3)c2)c1` (stereo not given) | 15.79% | 36.25% |
| `COCCC(=O)N1CCc2nc(N3CCOCC3)nc(NC(C)C)c2C1` | 6.323% | 11.15% |
| `O=c1cc(Cn2ccnc2)nc2n1CCCN(S(=O)(=O)C1CC1)C2` | 37.46% | -6.595% |
| `NC(=O)NC(=O)CN1CCN(CC2CC2)c2ccccc21` | 61.15% | 37.73% |
| `COCC1CN(Cc2cc(C)on2)Cc2cnn(C)c21.O=C(O)C(F)(F)F.O=C(O)C(F)(F)F` (stereo not given) | -16.43% | 13.68% |
| `O=C(c1cscn1)N1CCCC(n2cncn2)C1` (stereo not given) | -1.99% | 6.7% |
| `Cc1nc(C)n(CC2CCCN2CCOc2ccccc2C#N)n1` (stereo not given) | -13.88% | - |
| `CCN(Cc1ccc2c(c1)OCCO2)C(=O)NCc1nncn1CC` | -11.33% | -34.26% |
| `CCNC(=O)CCC(=O)NC(Cc1ccccc1)c1sccc1C` (stereo not given) | -6.955% | - |
| `[H][C@@]12CS(=O)(=O)C[C@]1([H])N(C(=O)Nc1ccccc1Cl)CCN2C(C)=O` | -13.43% | 4.723% |
| `O=C(Nc1ccc(F)cc1)N1CCC(CO)(Nc2ccccc2)CC1` | 10.68% | 17.31% |
| `Cc1ccc([C@H]2CN(C(=O)C3CCC3)C[C@@H]2N)o1` | 10.31% | 1.406% |
| `CCc1c(C)nc2n(c1=O)CC(C(=O)Nc1ncccc1C)CS2` (stereo not given) | -20.62% | - |
| `Cn1cnnc1C1CCN(C(=O)Cc2ccc3c(c2)OCCO3)CC1` | 27.39% | -22.24% |
| `O=C(CN1CCc2ccccc21)NCc1ccc(Cl)cc1` | -43.25% | -34.85% |

For reference, 4 entries once more:

| compound | A | B |
|---|---|---|
| `O=C(NCCOCCO)c1cccnc1Oc1ccc(Cl)cc1` | 43.92% | -30.46% |
| `N#Cc1ccccc1N1CCCN(CC(=O)Nc2ccc(Cl)cn2)CC1` | 3.359% | 32.71% |
| `CCN(CC)C(=O)c1ccc(-c2ccsc2)nc1C` | 85.72% | 18.7% |
| `CC(C)(C)C(=O)N1CCC(COCc2ccccc2)C1` (stereo not given) | -5.111% | 14.76% |